# Library screen at single concentrations

The chains behind the UniProt entries cited, without tags or fusion partners. Residues count along the entry.
UniProt A4I591, 1-473: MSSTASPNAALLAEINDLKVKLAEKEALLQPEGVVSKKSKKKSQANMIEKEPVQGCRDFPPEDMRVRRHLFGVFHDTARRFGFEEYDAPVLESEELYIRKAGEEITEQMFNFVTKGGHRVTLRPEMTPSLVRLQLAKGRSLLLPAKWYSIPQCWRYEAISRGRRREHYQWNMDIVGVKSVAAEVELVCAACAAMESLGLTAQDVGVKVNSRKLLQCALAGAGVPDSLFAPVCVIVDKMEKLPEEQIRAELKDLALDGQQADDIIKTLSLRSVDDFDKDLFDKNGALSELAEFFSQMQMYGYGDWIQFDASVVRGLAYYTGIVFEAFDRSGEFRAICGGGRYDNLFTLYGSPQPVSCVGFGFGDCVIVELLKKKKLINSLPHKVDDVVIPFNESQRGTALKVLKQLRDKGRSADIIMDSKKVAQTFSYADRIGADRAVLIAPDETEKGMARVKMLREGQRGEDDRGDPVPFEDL
UniProt P9WFT3, whole entry: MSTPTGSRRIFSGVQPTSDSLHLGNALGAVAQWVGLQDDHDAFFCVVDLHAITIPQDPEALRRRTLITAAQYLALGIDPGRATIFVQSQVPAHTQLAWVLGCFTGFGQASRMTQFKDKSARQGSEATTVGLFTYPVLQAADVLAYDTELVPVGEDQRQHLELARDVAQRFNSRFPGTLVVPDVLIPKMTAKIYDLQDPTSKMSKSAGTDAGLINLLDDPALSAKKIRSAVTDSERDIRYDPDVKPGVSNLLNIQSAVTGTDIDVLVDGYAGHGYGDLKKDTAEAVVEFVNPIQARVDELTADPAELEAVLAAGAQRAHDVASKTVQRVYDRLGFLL

A: 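Enzyme assay of histidyl-tRNA synthetase; the read-out is not stated. Target: Histidine-tRNA ligase, Leishmania infantum (UniProt A4I591). Tested at 30 µM. The record gives no direction; compounds that gave an IC50 in retests scored well above the rest, so higher reads as stronger inhibition. The assay is labelled LdHisRS but filed under L. infantum. Size under these conditions: about 69,000 compounds, about 410 of them at 50% or above in at least one test.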
B: 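Enzyme assay of tryptophanyl-tRNA synthetase; the read-out is not stated. Target: Tryptophan-tRNA ligase, Mycobacterium tuberculosis (UniProt P9WFT3). Compounds at 10 µM. Higher most likely means stronger inhibition; the record gives no direction and few retests gave an IC50. Size under these conditions: about 65,000 compounds, about 64 of them at 50% or above in at least one test.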

Each number is a percent effect as filed. How 0% and 100% were set is not recorded. Most values in the screen are low, and negative values occur. The compounds are a random part of those screened.

For Cc1cccc(NC(=O)c2sccc2C)n1 the result was A: 25.71%; B: -7.733%.
For Cc1ccn2ncc(C(=O)N3CCCC(c4cc(C)[nH]n4)C3)c2n1 (stereo not shown) the result was A: 6.612%; B: -1.095%.
For CC(=O)c1cc(CC(=O)NCc2ccsc2)cs1 the result was A: 5.556%; B: -0.486%.
For Cc1ccc(CN2CCCC23CCN(S(=O)(=O)c2ccccc2)C3)o1 (stereo not shown) the result was A: 16.54%; B: -2.005%.
For O=C1CC(NCc2ccncc2)CN1CCc1cccc(Cl)c1 (stereo not shown) the result was A: 13.83%; B: 4.77%.
For NC(=O)c1cc(C2CCCN(C(=O)CCc3cccs3)C2)n[nH]1 (stereo not shown) the result was A: -1.923%; B: 5.221%.
For COc1ccc(S(=O)(=O)NCCC(O)c2ccoc2)c(C)c1 (stereo not shown) the result was A: 3.478%; B: -6.003%.
For CC(c1nc(C2CC2)no1)N1CCc2c(ncn2C)C1 (stereo not shown) the result was A: -1.667%; B: 1.069%.
For O=C(CN1CC(c2nc(C3CC3)no2)C1)NCC1CCCO1 (stereo not shown) the result was A: 10.43%; B: 1.444%.
For CC(C)N[C@@H]1CO[C@H](CNC(=O)Nc2ccccc2)[C@H]1O the result was A: -4.054%; B: 1.593%.
For CCOC(=O)c1sc(NC(=O)CN2C(=O)CCC2=O)c(C#N)c1C the result was A: 20.22%; B: -0.8804%.
For O=C(Nc1ccc(F)c(Cl)c1)N1CCCN([C@H]2COC[C@@H]2O)CC1 the result was A: 14.89%; B: -0.3173%.
For c1ccc(-c2nccc(CNC3CCc4ncnn4C3)n2)cc1 (stereo not shown) the result was A: 15.65%; B: -2.337%.
For COc1cccc(C(=O)NS(=O)(=O)c2cccc(C#N)c2)c1 the result was A: 6.25%; B: -2.128%.
For COCCO[C@H]1CCN(C(=O)NC2CC2)[C@H]1Cc1cnn(C)c1 the result was A: 19.75%; B: -0.3856%.
For O=C(NCCc1nccs1)c1cn(CCN2CCNCC2)nn1 the result was A: -2.41%; B: -5.333%.
For COC(=O)c1ccc(/C=C/c2ncc(C(=O)O)s2)cc1 the result was A: 30.14%; B: 4.918%.
For O=C(CCc1nc(Cl)n[nH]1)N1CCC2(CCCNC2=O)C1 (stereo not shown) the result was A: 17.78%; B: 1.111%.
For NC(=O)C1CCN(C(=O)c2cc(S(=O)(=O)N3CCCCC3)cs2)CC1 the result was A: 0%; B: 5.121%.
For CCc1nsc(N2CCN(CC(=O)NCc3cccnc3)CC2)n1 the result was A: 21.88%; B: 3.561%.
For CCC(CN1CCCC1)NC(=O)C1(c2cccc(F)c2)CC1 (stereo not shown) the result was A: 0%; B: -3.826%.
For CN1CCO[C@H]2CN(C(=O)c3ccncc3F)C[C@H]21 the result was A: 13.68%; B: -0.8721%.
For Cn1cc(C(=O)CC2CCCN2C(=O)c2c[nH]c3ccccc23)cn1 (stereo not shown) the result was A: 12.28%; B: -3.076%.
For CC(C)Cn1cnc2ccc(NC(=O)CCCn3cccn3)cc2c1=O the result was A: 13.04%; B: 3.605%.
For O=C(Nc1ccc2c(c1)OCCO2)N1CCCN(Cc2cccs2)CC1 the result was A: 20%; B: -0.8396%.

Repeated from the top, 3 entries:

{"compound": "Cc1cccc(NC(=O)c2sccc2C)n1", "A": 25.71, "B": -7.733}
{"compound": "Cc1ccn2ncc(C(=O)N3CCCC(c4cc(C)[nH]n4)C3)c2n1", "stereo": "stereo not shown", "A": 6.612, "B": -1.095}
{"compound": "CC(=O)c1cc(CC(=O)NCc2ccsc2)cs1", "A": 5.556, "B": -0.486}

Measurements from “University of Dundee, Small-Polar-MMV Screening Library” (2021), ChEMBL document CHEMBL3988442.